At least one compound was matched to its structure with a doubt left.
Test system: HIV-1
Test: inhibition of fusion between HIV-1 IIIB infected H9 cells and uninfected MT-2 cells
Assay type: cell-based
Conditions: Table 1A; -- = none at 1000 μg/ml

SMILES: COc1ccc(O)c(C(C)(C)C)c1 [Butylated Hydroxyanisole]
- Inhibition of Cell Fusion ED50 ± SD (effective dose for 50% inhibition of HIV-1 induced cell fusion): -- (means no inhibitory activity on HIV1 induced cell fusion at the final concentration of 1000 μg/ml)

From patent publication US6165493A, “"Methods and compositions for decreasing the frequency of HIV, herpesvirus and sexually transmitted bacterial infections"” (New York Blood Center, Inc., priority 1998, dated 2000)
